# Laboratory results reported in the supplement of paper PMC8728848.
# The other results are listed elsewhere or left out.
# What was measured:
# [1] = target: Neu5Gc(a2-8)Neu5Gc(a2-6)Gal(b1-4)GlcNAc; assay: glycan array binding signal (z-score within array); higher = stronger binding; conditions: glycan notation: IUPAC condensed, linker removed
# How it was run: (§1)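 Glycan array data were curated from 3228 arrays in the Consortium for Functional Glycomics database and kept only where the protein sequence was available. Glycan names were converted to IUPAC-condensed notation, and columns mapping to the same glycan were averaged. The binding signal is a within-array Z-score, averaged across arrays of the same protein sequence at different concentrations or buffers and across linkers. Negative Z-scores can be read as non-binding.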
# [2] = target: Neu5Gc(b2-6)Gal(b1-4)GlcNAc; assay: as above; conditions: glycan notation: IUPAC condensed, linker removed
# How it was run: as §1
binder,measurement,setting,value
EUL D1A (Oryza sativa) (protein) MFGFGHHHNQAPAAPSDPNQIFKIFCRANENYCLTVRDSAVVLAPVNPKDEHQHWFKDMRFSTKVKDGEGMPAFALVNKATGLAVKHSLGQSHPVKLVPFNPEYEDASVLWTESKDVGKGFRCIRMVNNTRLNLDAFHGDKDHGGVRDGTTVVLWEWCKGDNQSWKILPWGPEAHSSSPGAATACTIGGVPVHTVRVFSAAGEDYCLTVRNGTACLAPKNPRDDYQHWIKDMRHSNKIRDEEGYPAFALVNKVTGEAIKHSTGQGHPVKLVPYNPEYQDESVLWTESKDVGKGFRCIRMVNNIYLNFDAFHGDKDHGGIHDGTEIVLWKWCEGDNQRWKILPWILEQKLISEEDLNSAVDHHHHHH,glycan array binding signal (z-score),[1],-0.137
same,glycan array binding signal (z-score),[2],-0.093
